# The inconclusive results got no clear call from the source; some entries with a clear call stand among them for comparison. Potencies of inconclusive entries are doubtful fits and often do not repeat. Activity calls are given as the source filed them. The call rests on the fitted dose curve; in most records, active means well fitted activation curve with a large enough effect in the repeat runs; inconclusive means weak or mixed curves; inactive means no such curve, though single readings can be large or run the other way.
# Protein sequences, listed by entry. Tags and fused reporters are not part of them. Lines headed by an entry give the natural chain unless they say otherwise; changes in a name come on top.
# UniProt O75469: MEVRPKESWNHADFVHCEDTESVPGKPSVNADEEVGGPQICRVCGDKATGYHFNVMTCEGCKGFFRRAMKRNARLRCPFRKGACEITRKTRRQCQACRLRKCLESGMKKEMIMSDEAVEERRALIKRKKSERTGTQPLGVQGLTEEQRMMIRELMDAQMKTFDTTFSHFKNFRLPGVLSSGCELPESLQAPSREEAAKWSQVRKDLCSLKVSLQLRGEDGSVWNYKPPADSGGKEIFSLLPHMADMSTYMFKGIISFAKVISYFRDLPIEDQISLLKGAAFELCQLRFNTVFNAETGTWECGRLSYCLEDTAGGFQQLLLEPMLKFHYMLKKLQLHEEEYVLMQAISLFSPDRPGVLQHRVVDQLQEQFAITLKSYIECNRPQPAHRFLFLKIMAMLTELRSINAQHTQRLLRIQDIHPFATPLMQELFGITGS
# Molecular target: Nuclear receptor subfamily 1 group I member 2 (Homo sapiens) (UniProt O75469)
# Test: Human pregnane X receptor (PXR) small molecule agonists, qHTS assay (AID 1346982); further: nearly all actives have a fitted effect of over 35% in size
# Settings: PXR-Luc HepG2, CYP3A4 luciferase reporter, 24 h; series mostly up to 92.4 µM
# Summary of the method: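 Stable HepG2 line reporting PXR-mediated CYP3A4 expression via luciferase. Treatment: 24 hr with compounds in DMSO at 37 C. Detection: ONE-Glo luminescence.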
# Potency means the concentration at half of the fitted maximal effect.
row,Compound,Potency
1,CCC(=O)/C=C/c1ccc(OC)cc1,inconclusive: 68.6 µM [activator]
2,CCC(C(=O)O)c1ccc(N2Cc3ccccc3C2=O)cc1 (stereo unspecified),active: 4.73 µM
3,O=C(C1CCCCC1)N1CC(=O)N2CCc3ccccc3C2C1 (stereo unspecified),"inconclusive: 33.5 µM [activator, single point]"
4,[O-][N+](=Nc1ccccc1)c1ccccc1,active: 21.7 µM
5,Nc1ccn([C@H]2CC[C@@H](CO)O2)c(=O)n1,"inconclusive: 60.1 µM [activator, partial curve, poor fit]"
6,Cc1ccc(N(C)C)cc1,"inconclusive: 54.5 µM [activator, partial curve, poor fit]"
7,CCN(CC)c1ccc(N=Nc2ccccc2)cc1,active: 1.37 µM
8,CC(=O)CC(=O)c1ccccc1,"inconclusive: 61.5 µM [activator, single point]"
9,Nc1ccc(Cl)c([N+](=O)[O-])c1,"inconclusive: 68.6 µM [activator, single point]"
10,CCCCC(CC)CO (stereo unspecified),inactive
11,NCCCOCCOCCOCCCN,"inconclusive: 61.1 µM [activator, partial curve]"
12,CCCCCCCCCCCCC(=O)O,"inconclusive: 54.6 µM [activator, partial curve]"
13,Nc1ccc(F)c([N+](=O)[O-])c1,inactive
14,CCCS(=O)c1ccc2nc(NC(=O)OC)[nH]c2c1 (stereo unspecified),inconclusive: 33.5 µM [activator]
15,CO[Si](OC)(c1ccccc1)c1ccccc1,active: 34.4 µM
16,Cc1cncc(C)c1,inactive

# Reformatted bar-delimited: entries from further up.
row | Compound | Potency
1 | CCC(=O)/C=C/c1ccc(OC)cc1 | inconclusive: 68.6 µM [activator]
3 | O=C(C1CCCCC1)N1CC(=O)N2CCc3ccccc3C2C1 (stereo unspecified) | inconclusive: 33.5 µM [activator, single point]

# Source: PubChem BioAssay (Tox21)
